Consider 35 compounds from the supplement of paper PMC9135407.

The test system of the experiment is primary human hepatic stellate cells (donor 1). As to the kind of experiment: percent Bodipy-positive cells; higher = more lipid droplet accumulation. As to conditions: 48 h. On the procedure:
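Primary lipid accumulation screen in primary human hepatic stellate cell myofibroblasts (donor 1, passage 8) in 384-well plates. 100 nL of library compound was pin-transferred into 30 µL medium in duplicate, and cells were treated for 48 h. The 'Scaled' score combines distance from plate baseline, toxicity and reproducibility penalties, and is normalised to nortriptyline (positive) and DMSO (negative) controls on each plate. A hit is defined as scaled >0.85 or among the top 3 wells per plate.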

The mark [1] stands for this setting: library stock concentration: 10 mM.
Setting [2] is: library stock concentration: 3.33 mM.
Where [3] appears, read: library stock concentration: 1 mM.
The mark [4] stands for this setting: library stock concentration: 80 uM.
Setting [5] is: library stock concentration: 400 uM.

Where “and” joins values, the source holds several entries; their conditions need not be identical. Identical values can stand only once. Counter-ions that a name gives are not always drawn. ± gives the standard deviation of the averaged measurements. This is one part of the list. Plates or batches differ in their baseline, so values are only roughly comparable.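 Primary human stellate myofibroblasts activated in culture; inactivation shown by regained lipid droplets. Readout: fraction of Hoechst-counted cells exceeding a per-plate Bodipy threshold, duplicate wells, each plate with DMSO negative and nortriptyline positive controls. Hits: control-normalized score beyond the plate's top-tenth-percentile nortriptyline wells, or among its three best wells. Final well concentrations unstated.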

For `N=C1NC(=O)N2CC12` (stereo unspecified), the “percent Bodipy-positive cells” value under setting [1] was 45.5 ± 17%.
Take `NCC(O)c1ccc(O)cc1` (racemic) [(+,-)-Octopamine hydrochloride]: the “percent Bodipy-positive cells” value is 9.81 ± 1.5%.
Turning to `NCC(O)c1ccc(O)cc1` (racemic) [(+,-)-Octopamine HCl], the “percent Bodipy-positive cells” value stood at 10.5 ± 0.42% under setting [2] and 22.6 ± 12% under setting [1].
With `CN=C(NS(=O)(=O)c1ccc(Cl)cc1)N1C[C@H](c2ccccc2)C(c2ccc(Cl)cc2)=N1`, under setting [3], the “percent Bodipy-positive cells” value turned out to be 9.58 ± 2.1%.
Regarding `C[C@@H]1O[C@@H](O[C@H]2C[C@@H](O)[C@]3(CO)[C@H]4[C@H](O)C[C@]5(C)[C@@H](C6=CC(=O)OC6)CC[C@]5(O)[C@@H]4CC[C@]3(O)C2)[C@H](O)[C@H](O)[C@H]1O` [Ouabain], the “percent Bodipy-positive cells” value (library stock concentration: 8.6 mM) was determined as 80.2 ± 2.3%.
For `COc1ccc2c3c([nH]c2c1)C(C)=NCC3` [Harmaline hydrochloride dihydrate], the “percent Bodipy-positive cells” value was found to be 51 ± 6%.
As for `COc1ccc2c3c([nH]c2c1)C(C)=NCC3` [Harmaline], the “percent Bodipy-positive cells” value under setting [1] came out at 55.5 ± 1.3%.
In the case of `CN1[C@@H]2CC[C@H]1C[C@@H](OC1c3ccccc3CCc3ccccc31)C2` [Deptropine citrate], the “percent Bodipy-positive cells” value is 34.9 ± 0.93%.
Regarding `C[C@@H](N)Cc1cnc[nH]1` [Histamine, R(-)-alpha-methyl-, dihydrochloride], the “percent Bodipy-positive cells” value under setting [1] turned out to be 33.443 ± 0.0028%.
`Clc1cc(I)cc(Cl)c1NC1=NCCN1` [p-Iodoclonidine hydrochloride]: the “percent Bodipy-positive cells” value under setting [1] came to 49.9 ± 8.6%.
As to `Cn1c2cccc(=O)c-2nc2ccccc21` [Pyocyanin], under setting [3], the “percent Bodipy-positive cells” value was 40 ± 41%.
`CCCN(CCC)C1CCc2cccc(O)c2C1` (stereo unspecified): under setting [1], the “percent Bodipy-positive cells” value was found to be 54.8 ± 18%.
Turning to `CCCN(CCC)C1CCc2cccc(O)c2C1` (stereo unspecified) [8-Hydroxy-DPAT hydrobromide], the “percent Bodipy-positive cells” value under setting [1] is 14.2 ± 3.6%.
Take `c1cncc(C2=NCCC2)c1` [Myosmine]: the “percent Bodipy-positive cells” value worked out at 6.16 ± 3.3%.
Regarding `CCCCC/C=C\C=C\[C@H](CCCCCCCC(=O)O)OO`, the “percent Bodipy-positive cells” value (library stock concentration: 100 uM) was 11.3 ± 10%.
As for `N#CC(C#N)=Cc1ccc(O)cc1` [Tyrphostin-8], the “percent Bodipy-positive cells” value (library stock concentration: 29.4 mM) amounted to 13.4 ± 1.5%.
Turning to `CC(C)(Cc1c[nH]c2ccc(Cl)cc12)NCCOc1ccccc1OCC1CC1`, the “percent Bodipy-positive cells” value under setting [1] stood at 78 ± 1%.
The same measure, in the same setting: the figure for `Cc1ccc(C[N+](C)(C)C)o1` [5-Methylfurmethiodide] is 6.52 ± 0.68%.
Turning to `O=c1[nH]c2ccccc2n1C1CCN(Cc2ccc(-c3[nH]c4cc5ncnc5cc4nc3-c3ccccc3)cc2)CC1` [Sigma A6730], the “percent Bodipy-positive cells” value turned out to be 8.9 ± 1.8% under setting [4], 7.79 ± 1.2% under setting [5], 19 ± 1.5% (library stock concentration: 2 mM) and 73.7 ± 7.1% under setting [1].
As to `c1cc(N2CCNCC2)c2cc[nH]c2c1` [4-(1-piperazinyl)-1H-Indole (hydrochloride)], the “percent Bodipy-positive cells” value under setting [3] was 10.1 ± 1.2%.
With `CCCCCCCCCCCCCCCC(=O)OCC(COP(=O)([O-])OCC[N+](C)(C)C)OC(C)=O` (stereo unspecified), the “percent Bodipy-positive cells” value under setting [3] worked out at 7.9 ± 1.3%.
As for `Cc1nccc2c1[nH]c1ccccc12` [Harmane hydrochloride], the “percent Bodipy-positive cells” value stood at 36.8 ± 1.9%.
In the case of `Cc1nccc2c1[nH]c1ccccc12` [Harmane], under setting [1], the “percent Bodipy-positive cells” value was found to be 78.9 ± 6.3%.
With `CCCN1CCc2cccc3c2[C@H]1Cc1ccc(O)c(O)c1-3` [R(-)-Propylnorapomorphine hydrochloride], the “percent Bodipy-positive cells” value under setting [1] stood at 59.7 ± 11%.
Same read-out and setting: the figure for `C[C@]12CC[C@@H]3c4ccc(OC(=O)N(CCCl)CCCl)cc4CC[C@H]3[C@@H]1CC[C@@H]2O` is 73.5 ± 5.6%.
Take `COc1ccc(CCN2CCC(Nc3nc4ccccc4n3Cc3ccc(F)cc3)CC2)cc1` [Astemizole]: the “percent Bodipy-positive cells” value under setting [1] came to 95.76 ± 0.67%.
For the compound `CC[C@@]1(O)C[C@H](O[C@H]2C[C@H](N(C)C)[C@H](O)[C@H](C)O2)c2c(cc3c(c2O)C(=O)c2c(O)ccc(O)c2C3=O)[C@H]1C(=O)OC` [Pyrromycin], the “percent Bodipy-positive cells” value under setting [1] is 63.3 ± 9.8%.
Take `COC[C@@H]([C@H](O)[C@H](O)C(=O)NCC[C@H](C)c1nc(/C=C/C[C@@H]2O[C@]3(C[C@@H](O)[C@@H]2C)O[C@H]([C@H](C[C@H](O)[C@H](C)[C@H](O)[C@H](C)/C=C(C)/C(C)=C/C=C/C(C)=C\C#N)OC)[C@H](OP(=O)(O)O)C3(C)C)co1)N(C)C` [Calyculin A]: for the setting “library stock concentration: 500 uM”, the “percent Bodipy-positive cells” value came to 100%.
Regarding `CCN1C[C@]2(COC)[C@H](O)C[C@H](OC)[C@@]34[C@@H]5C[C@@]6(O)[C@H](OC(=O)c7ccccc7)[C@@H]5[C@@](OC(C)=O)([C@@H]([C@H](OC)[C@H]23)[C@@H]14)[C@@H](O)[C@@H]6OC` [Aconitine], the “percent Bodipy-positive cells” value worked out at 24 ± 2.8%. In addition, the “percent Bodipy-positive cells” value (library stock concentration: 3.1 mM) is 10.8 ± 3%. Also, under “library stock concentration: 7.7 mM”, the “percent Bodipy-positive cells” value worked out at 23.3 ± 15%. The “percent Bodipy-positive cells” value under setting [1] is 32.9% and 21.5%.
As for `CC(N)Cc1cccc(C(F)(F)F)c1` (single isomer, unassigned; (+)) [(+)-Norfenfluramine hydrochloride], the “percent Bodipy-positive cells” value under setting [1] came to 60.8 ± 20%.
`c1ccc2c(c1)[I+]c1ccccc1-2` [Diphenyleneiodonium]: for the setting “library stock concentration: 17.9 mM”, the “percent Bodipy-positive cells” value was 100%.
Regarding `O=[N+]([O-])c1cc([As](=O)(O)O)ccc1O` [Roxarsone], the “percent Bodipy-positive cells” value came out at 6.83 ± 4.2%. Moreover, under “library stock concentration: 7.6 mM”, the “percent Bodipy-positive cells” value turned out to be 14.6 ± 2.5%. Moreover, the “percent Bodipy-positive cells” value under setting [1] was determined as 13.5 ± 3.2%.
Turning to `COc1ccc2c(c[n+](C)c3c4cc5c(cc4ccc23)OCO5)c1OC` [Chelerythrine chloride], the “percent Bodipy-positive cells” value is 10.3 ± 3.2% under setting [4]; 9.52 ± 2.6% under setting [5]; 86.1% and 100% under setting [1].
`COc1ccc2c(c[n+](C)c3c4cc5c(cc4ccc23)OCO5)c1OC` [Chelerythrine Chloride]: the “percent Bodipy-positive cells” value under setting [2] was 98.81 ± 0.56%.
As for `O=C(O)c1ccc2[nH]cc(CCCCN3CC=C(c4ccccc4)CC3)c2c1` [Carmoxirole hydrochloride], under setting [1], the “percent Bodipy-positive cells” value was found to be 3.01 ± 0.64%.
